No constants are given. Whether binding was seen depends on the method and setting. In cells and extracts the contact can be indirect. For some assays here: Binding calls can cover weak binding; strength is not graded here.
How the values were obtained:
[1] = target: HA epitope tagged CARMIL3 lacking the predicted Wrp-binding site (UniProt Q3UFQ8); assay: co-IP; HEK293T cells co-transfected with HA-CARMIL3 constructs, Wrp constructs and CAPZB2-TwinStrepII; lysis in 25 mM HEPES, 150 mM NaCl, 0.5% Triton X-100, 1 mM EDTA; anti-HA beads overnight; blots with anti-HA, anti-V5, anti-capping protein beta
[2] = target: HA epitope tagged CARMIL3 with a deletion of the CP-binding region (UniProt Q3UFQ8); assay: as above

By UniProt entry, the sequences of proteins in these tests, tags left out. Where a name states a change or a piece, a line headed by the entry shows the natural chain unless it says otherwise.
UniProt Q3UFQ8: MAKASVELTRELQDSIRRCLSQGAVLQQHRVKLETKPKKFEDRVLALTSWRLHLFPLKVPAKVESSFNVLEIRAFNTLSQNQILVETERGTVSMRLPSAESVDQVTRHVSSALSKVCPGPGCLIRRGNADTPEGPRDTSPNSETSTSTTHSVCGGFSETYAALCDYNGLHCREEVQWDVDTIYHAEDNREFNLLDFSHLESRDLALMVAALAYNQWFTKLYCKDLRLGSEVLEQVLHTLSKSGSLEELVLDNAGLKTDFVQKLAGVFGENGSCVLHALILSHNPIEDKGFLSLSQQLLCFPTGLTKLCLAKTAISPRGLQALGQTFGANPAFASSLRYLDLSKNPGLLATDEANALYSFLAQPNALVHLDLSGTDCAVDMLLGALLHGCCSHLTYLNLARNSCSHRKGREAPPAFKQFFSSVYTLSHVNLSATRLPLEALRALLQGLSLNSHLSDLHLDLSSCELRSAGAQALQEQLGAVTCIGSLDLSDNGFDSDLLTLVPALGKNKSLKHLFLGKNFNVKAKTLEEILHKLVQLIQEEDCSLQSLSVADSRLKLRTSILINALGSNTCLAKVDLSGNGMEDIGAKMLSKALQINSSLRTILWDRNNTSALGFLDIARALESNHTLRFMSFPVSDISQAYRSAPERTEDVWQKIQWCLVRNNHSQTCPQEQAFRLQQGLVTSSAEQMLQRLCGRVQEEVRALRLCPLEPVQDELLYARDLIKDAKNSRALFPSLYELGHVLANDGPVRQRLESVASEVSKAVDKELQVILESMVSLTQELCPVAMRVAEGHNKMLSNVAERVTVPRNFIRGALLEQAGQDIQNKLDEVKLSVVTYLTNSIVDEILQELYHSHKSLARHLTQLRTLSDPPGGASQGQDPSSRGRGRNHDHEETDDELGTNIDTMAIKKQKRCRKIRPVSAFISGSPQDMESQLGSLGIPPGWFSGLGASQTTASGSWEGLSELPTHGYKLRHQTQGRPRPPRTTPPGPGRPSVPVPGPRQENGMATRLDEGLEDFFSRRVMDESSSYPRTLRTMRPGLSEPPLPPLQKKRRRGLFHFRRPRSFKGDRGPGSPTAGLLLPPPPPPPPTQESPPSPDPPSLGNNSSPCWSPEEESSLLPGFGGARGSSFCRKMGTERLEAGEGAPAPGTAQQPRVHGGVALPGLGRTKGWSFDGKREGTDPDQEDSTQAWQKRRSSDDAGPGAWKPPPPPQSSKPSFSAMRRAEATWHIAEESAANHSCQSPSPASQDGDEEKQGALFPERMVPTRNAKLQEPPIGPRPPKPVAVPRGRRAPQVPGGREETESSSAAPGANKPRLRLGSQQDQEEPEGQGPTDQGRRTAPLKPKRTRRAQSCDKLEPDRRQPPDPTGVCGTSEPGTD
UniProt Q812A2: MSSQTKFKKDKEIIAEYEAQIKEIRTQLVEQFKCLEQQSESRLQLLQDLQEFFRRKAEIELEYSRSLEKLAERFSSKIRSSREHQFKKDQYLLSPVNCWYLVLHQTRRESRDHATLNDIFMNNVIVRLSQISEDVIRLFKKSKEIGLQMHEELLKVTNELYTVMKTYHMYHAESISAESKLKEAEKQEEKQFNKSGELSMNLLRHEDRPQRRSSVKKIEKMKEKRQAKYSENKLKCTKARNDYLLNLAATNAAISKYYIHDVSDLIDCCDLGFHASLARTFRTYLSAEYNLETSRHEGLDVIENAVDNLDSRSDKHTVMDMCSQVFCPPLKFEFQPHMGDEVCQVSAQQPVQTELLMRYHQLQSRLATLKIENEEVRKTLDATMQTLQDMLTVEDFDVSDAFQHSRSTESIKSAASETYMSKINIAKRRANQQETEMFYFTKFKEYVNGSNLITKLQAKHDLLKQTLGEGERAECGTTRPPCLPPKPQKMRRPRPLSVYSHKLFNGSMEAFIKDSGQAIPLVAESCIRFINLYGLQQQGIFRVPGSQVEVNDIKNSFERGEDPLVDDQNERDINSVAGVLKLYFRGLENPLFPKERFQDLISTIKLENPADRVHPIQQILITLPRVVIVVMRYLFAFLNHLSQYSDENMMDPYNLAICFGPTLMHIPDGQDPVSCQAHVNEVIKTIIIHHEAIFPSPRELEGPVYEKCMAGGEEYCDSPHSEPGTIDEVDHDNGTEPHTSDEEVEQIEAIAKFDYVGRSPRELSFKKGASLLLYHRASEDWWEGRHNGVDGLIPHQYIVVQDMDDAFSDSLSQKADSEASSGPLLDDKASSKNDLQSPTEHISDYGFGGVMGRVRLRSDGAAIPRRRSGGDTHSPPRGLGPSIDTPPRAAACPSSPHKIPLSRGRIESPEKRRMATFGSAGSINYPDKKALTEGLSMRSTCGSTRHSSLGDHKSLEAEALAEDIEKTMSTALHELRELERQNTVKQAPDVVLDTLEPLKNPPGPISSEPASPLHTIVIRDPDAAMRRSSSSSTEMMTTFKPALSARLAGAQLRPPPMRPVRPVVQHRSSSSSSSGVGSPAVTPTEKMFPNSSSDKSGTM

binding [1]: no binding | binding [2]: binds
Substance: V5-epitope tagged Wrp (full-length) (from UniProt Q812A2 1-1099)

— PMC6344529
